Reference: article PMC11700837
These are yes or no findings as the source states them, for the method shown. In cells and extracts the contact can be indirect. Some binding calls cover weakened binding; strength is not graded here.

Protein sequences, listed by entry. Tags and fused reporters are not part of them. Lines headed by an entry give the natural chain unless they say otherwise; changes in a name come on top.
UniProt Q16665: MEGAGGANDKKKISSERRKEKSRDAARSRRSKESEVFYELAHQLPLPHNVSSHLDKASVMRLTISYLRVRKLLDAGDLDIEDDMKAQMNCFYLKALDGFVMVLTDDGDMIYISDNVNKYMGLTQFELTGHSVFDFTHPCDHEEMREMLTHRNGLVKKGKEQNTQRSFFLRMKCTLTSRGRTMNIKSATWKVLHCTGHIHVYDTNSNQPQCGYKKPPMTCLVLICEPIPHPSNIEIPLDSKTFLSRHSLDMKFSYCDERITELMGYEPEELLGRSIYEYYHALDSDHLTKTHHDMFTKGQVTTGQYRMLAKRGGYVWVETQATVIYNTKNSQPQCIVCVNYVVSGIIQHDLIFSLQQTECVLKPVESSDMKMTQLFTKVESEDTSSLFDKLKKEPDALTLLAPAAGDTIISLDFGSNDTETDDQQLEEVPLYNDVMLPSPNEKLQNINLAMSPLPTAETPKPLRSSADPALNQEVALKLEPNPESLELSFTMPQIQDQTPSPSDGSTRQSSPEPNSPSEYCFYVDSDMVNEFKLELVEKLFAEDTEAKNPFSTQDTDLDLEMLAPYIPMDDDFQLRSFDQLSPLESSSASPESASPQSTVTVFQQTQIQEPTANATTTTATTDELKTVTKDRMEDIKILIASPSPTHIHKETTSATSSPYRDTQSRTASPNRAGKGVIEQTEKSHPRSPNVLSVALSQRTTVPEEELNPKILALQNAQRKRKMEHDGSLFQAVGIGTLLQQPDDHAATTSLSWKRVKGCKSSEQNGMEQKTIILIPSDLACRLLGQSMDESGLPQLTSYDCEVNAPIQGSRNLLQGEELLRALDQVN
UniProt P04406: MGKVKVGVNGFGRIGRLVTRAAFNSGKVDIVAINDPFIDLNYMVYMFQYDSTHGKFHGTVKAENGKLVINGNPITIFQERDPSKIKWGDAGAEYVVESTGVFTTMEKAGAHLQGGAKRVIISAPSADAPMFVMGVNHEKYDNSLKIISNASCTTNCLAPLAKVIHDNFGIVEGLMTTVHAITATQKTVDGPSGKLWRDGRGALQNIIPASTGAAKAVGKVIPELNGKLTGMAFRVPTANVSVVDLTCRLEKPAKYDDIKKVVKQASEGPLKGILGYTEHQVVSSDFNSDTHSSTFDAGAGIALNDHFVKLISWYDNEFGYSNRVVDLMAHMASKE
UniProt P12004: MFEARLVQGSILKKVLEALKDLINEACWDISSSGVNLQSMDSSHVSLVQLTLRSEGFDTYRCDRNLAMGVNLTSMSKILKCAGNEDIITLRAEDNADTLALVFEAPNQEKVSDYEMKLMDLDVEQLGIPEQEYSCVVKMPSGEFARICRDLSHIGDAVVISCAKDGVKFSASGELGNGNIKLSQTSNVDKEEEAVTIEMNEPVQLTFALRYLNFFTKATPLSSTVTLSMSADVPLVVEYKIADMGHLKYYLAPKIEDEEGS
UniProt Q9NS91: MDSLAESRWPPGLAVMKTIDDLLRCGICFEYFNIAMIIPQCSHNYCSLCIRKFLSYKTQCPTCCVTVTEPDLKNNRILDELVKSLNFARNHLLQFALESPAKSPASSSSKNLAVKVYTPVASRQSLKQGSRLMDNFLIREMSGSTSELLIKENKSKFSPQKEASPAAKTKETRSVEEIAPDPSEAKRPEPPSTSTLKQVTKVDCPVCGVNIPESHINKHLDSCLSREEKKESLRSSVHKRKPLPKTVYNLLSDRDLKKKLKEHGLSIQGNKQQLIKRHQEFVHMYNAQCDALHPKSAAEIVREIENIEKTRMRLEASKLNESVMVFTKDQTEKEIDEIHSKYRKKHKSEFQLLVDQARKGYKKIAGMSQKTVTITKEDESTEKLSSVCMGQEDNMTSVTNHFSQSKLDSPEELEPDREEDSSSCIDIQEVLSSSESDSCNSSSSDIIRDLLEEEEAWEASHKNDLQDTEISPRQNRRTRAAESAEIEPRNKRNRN

Target: HA-HIF1α P402A/P564A (UniProt Q16665)
Assay: co-IP; HEK293FT cells transfected with HA-HIF1α P402A/P564A plasmid or empty vector for 24 h; extracted proteins (20 μg) immunoprecipitated with an anti-HA antibody, SDS-PAGE and blotting with the indicated antibodies

Row | Substance | binding
1 | GAPDH (from UniProt P04406 1-335) | no binding
2 | PCNA (from UniProt P12004 1-261) | binds
3 | RAD18 (from UniProt Q9NS91 1-495) | binds
